For two molecules, binding results are on record in PMC7260205, “Steric occlusion regulates proximal interactions of acyl carrier protein domain in fungal fatty acid synthase” (Communications Biology, 2020).

Protein sequences, listed by entry. Tags and fused reporters are not part of them. Lines headed by an entry give the natural chain unless they say otherwise; changes in a name come on top.
UniProt P07149: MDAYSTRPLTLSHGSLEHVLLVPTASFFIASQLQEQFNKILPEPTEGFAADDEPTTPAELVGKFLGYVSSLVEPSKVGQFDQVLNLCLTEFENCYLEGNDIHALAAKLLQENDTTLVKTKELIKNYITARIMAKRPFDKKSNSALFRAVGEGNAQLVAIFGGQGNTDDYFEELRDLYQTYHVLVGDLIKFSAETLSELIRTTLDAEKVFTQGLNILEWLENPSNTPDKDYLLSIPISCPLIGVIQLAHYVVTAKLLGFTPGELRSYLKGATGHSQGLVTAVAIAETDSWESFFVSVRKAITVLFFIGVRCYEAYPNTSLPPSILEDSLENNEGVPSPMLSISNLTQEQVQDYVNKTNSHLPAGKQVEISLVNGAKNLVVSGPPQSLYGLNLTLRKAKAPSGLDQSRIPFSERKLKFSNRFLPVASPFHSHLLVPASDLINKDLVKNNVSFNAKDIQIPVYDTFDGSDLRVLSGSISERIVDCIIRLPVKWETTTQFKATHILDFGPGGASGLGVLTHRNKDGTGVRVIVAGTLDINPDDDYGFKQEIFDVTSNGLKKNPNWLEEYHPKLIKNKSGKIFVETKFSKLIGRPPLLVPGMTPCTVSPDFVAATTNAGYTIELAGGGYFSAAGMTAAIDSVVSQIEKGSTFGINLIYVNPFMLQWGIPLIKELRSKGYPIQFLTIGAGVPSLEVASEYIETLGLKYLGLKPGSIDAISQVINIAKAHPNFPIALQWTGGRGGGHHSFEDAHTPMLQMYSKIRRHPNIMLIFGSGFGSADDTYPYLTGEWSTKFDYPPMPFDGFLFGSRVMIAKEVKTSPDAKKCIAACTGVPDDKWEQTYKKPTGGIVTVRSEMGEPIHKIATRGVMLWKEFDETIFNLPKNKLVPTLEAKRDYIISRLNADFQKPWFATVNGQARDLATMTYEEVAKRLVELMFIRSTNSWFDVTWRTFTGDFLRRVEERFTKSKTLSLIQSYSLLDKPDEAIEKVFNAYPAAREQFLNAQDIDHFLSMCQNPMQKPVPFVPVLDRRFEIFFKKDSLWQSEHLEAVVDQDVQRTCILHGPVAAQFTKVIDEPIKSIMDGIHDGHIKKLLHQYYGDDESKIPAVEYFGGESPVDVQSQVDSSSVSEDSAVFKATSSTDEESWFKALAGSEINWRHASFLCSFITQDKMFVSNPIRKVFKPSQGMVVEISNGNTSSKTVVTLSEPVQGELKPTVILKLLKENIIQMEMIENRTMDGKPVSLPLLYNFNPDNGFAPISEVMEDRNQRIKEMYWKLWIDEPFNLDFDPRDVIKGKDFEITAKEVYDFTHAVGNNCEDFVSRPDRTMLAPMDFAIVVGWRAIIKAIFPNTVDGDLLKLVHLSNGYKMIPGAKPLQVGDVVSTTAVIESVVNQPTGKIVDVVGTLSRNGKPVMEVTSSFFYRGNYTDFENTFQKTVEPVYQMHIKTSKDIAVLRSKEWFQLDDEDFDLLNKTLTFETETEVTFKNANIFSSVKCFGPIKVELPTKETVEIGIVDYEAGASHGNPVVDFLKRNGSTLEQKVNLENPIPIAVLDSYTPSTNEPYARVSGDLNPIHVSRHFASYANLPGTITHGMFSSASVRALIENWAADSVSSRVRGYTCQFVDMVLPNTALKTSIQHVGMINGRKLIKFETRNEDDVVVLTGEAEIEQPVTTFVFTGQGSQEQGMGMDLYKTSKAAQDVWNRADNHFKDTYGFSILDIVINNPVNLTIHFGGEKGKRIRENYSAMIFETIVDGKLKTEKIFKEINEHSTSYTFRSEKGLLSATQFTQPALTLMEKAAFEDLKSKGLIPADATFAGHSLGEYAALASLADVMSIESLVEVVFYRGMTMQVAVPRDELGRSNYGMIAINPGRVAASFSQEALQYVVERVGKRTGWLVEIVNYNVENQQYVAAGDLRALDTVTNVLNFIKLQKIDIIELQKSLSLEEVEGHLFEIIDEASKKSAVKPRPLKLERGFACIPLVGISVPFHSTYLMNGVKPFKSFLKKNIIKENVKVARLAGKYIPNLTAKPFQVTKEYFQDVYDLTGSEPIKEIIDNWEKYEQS

Results are given in words; binding and its absence hold for the method and conditions named. Some entries that bind do so weakly or less than the wild type.

Holding throughout (experiment): cryo-EM structure; FAS1-His6 and FAS2 co-expressed and purified as one complex; 1-2 mg/ml in TBS (50 mM Tris pH 7.4, 150 mM NaCl) on holey gold grids; WT apo or with acetyl-CoA, malonyl-CoA and NADPH; mutants with substrates; D3 symmetrised maps; for H1564A and H740A also symmetry expansion, signal subtraction and focused classification; both purified
Experiment [1] deals with S. cerevisiae fatty acid synthase FAS1 polypeptide (β-chain), wild type, C-terminal 6xHis (S. cerevisiae) (UniProt P07149).
The target of experiment [2] is S. cerevisiae FAS1 polypeptide (β-chain) H1564A, C-terminal 6xHis (S. cerevisiae) (UniProt P07149).
The target of experiment [3] is S. cerevisiae FAS1 polypeptide (β-chain) H740A, C-terminal 6xHis (S. cerevisiae) (UniProt P07149).
Experiment [4] deals with S. cerevisiae FAS1 polypeptide (β-chain) S274A S1808A, C-terminal 6xHis (S. cerevisiae) (UniProt P07149).

As for “S. cerevisiae FAS2 polypeptide (α-chain) Y839A (from UniProt P19097 1-1887) (enzyme)”, in experiment [1], the binding result is recorded as “binds”.

B1: S. cerevisiae fatty acid synthase FAS2 polypeptide (α-chain), wild type (enzyme)
chain: MKPEVEQELAHILLTELLAYQFASPVRWIETQDVFLKDFNTERVVEIGPSPTLAGMAQRTLKNKYESYDAALSLHREILCYSKDAKEIYYTPDPSELAAKEEPAKEEAPAPTPAASAPAPAAAAPAPVAAAAPAAAAAEIADEPVKASLLLHVLVAHKLKKSLDSIPMSKTIKDLVGGKSTVQNEILGDLGKEFGTTPEKPEETPLEELAETFQDTFSGALGKQSSSLLSRLISSKMPGGFTITVARKYLQTRWGLPSGRQDGVLLVALSNEPAARLGSEADAKAFLDSMAQKYASIVGVDLSSAASASGAAGAGAAAGAAMIDAGALEEITKDHKVLARQQLQVLARYLKMDLDNGERKFLKEKDTVAELQAQLDYLNAELGEFFVNGVATSFSRKKARTFDSSWNWAKQSLLSLYFEIIHGVLKNVDREVVSEAINIMNRSNDALIKFMEYHISNTDETKGENYQLVKTLGEQLIENCKQVLDVDPVYKDVAKPTGPKTAIDKNGNITYSEEPREKVRKLSQYVQEMALGGPITKESQPTIEEDLTRVYKAISAQADKQDISSSTRVEFEKLYSDLMKFLESSKEIDPSQTTQLAGMDVEDALDKDSTKEVASLPNKSTISKTVSSTIPRETIPFLHLRKKTPAGDWKYDRQLSSLFLDGLEKAAFNGVTFKDKYVLITGAGKGSIGAEVLQGLLQGGAKVVVTTSRFSKQVTDYYQSIYAKYGAKGSTLIVVPFNQGSKQDVEALIEFIYDTEKNGGLGWDLDAIIPFAAIPEQGIELEHIDSKSEFAHRIMLTNILRMMGCVKKQKSARGIETRPAQVILPMSPNHGTFGGDGMYSESKLSLETLFNRWHSESWANQLTVCGAIIGWTRGTGLMSANNIIAEGIEKMGVRTFSQKEMAFNLLGLLTPEVVELCQKSPVMADLNGGLQFVPELKEFTAKLRKELVETSEVRKAVSIETALEHKVVNGNSADAAYAQVEIQPRANIQLDFPELKPYKQVKQIAPAELEGLLDLERVIVVTGFAEVGPWGSARTRWEMEAFGEFSLEGCVEMAWIMGFISYHNGNLKGRPYTGWVDSKTKEPVDDKDVKAKYETSILEHSGIRLIEPELFNGYNPEKKEMIQEVIVEEDLEPFEASKETAEQFKHQHGDKVDIFEIPETGEYSVKLLKGATLYIPKALRFDRLVAGQIPTGWNAKTYGISDDIISQVDPITLFVLVSVVEAFIASGITDPYEMYKYVHVSEVGNCSGSGMGGVSALRGMFKDRFKDEPVQNDILQESFINTMSAWVNMLLISSSGPIKTPVGACATSVESVDIGVETILSGKARICIVGGYDDFQEEGSFEFGNMKATSNTLEEFEHGRTPAEMSRPATTTRNGFMEAQGAGIQIIMQADLALKMGVPIYGIVAMAATATDKIGRSVPAPGKGILTTAREHHSSVKYASPNLNMKYRKRQLVTREAQIKDWVENELEALKLEAEEIPSEDQNEFLLERTREIHNEAESQLRAAQQQWGNDFYKRDPRIAPLRGALATYGLTIDDLGVASFHGTSTKANDKNESATINEMMKHLGRSEGNPVIGVFQKFLTGHPKGAAGAWMMNGALQILNSGIIPGNRNADNVDKILEQFEYVLYPSKTLKTDGVRAVSITSFGFGQKGGQAIVVHPDYLYGAITEDRYNEYVAKVSAREKSAYKFFHNGMIYNKLFVSKEHAPYTDELEEDVYLDPLARVSKDKKSGSLTFNSKNIQSKDSYINANTIETAKMIENMTKEKVSNGGVGVDVELITSINVENDTFIERNFTPQEIEYCSAQPSVQSSFAGTWSAKEAVFKSLGVKSLGGGAALKDIEIVRVNKNAPAVELHGNAKKAAEEAGVTDVKVSISHDDLQAVAVAVSTKK
notes: Fatty acid synthase subunit alpha (FAS2 gene product), S. cerevisiae strain BJ2168, gene amplified from genomic DNA into NcoI-digested pET-15b(+); holds the ACP domain (residues 140-302), KR and KS domains; Serine 180 of the ACP domain is called the phosphopantetheine attachment site; No tag is named for FAS2; also called JWL03; holds the ACP domain; source: E. coli BL21, co-expressed with …
For the molecule B1, the binding entry in experiment [2], in experiment [3], in experiment [4] and in experiment [1] was “binds” in each case.
